From paper PMC9976908 come the findings set out here.

Results are given in words; binding and its absence hold for the method and conditions named. Some entries that bind do so weakly or less than the wild type.

For the experiment, the target named is T1, C. elegans Drosha (C. elegans) (UniProt O01326).
T1 sequence: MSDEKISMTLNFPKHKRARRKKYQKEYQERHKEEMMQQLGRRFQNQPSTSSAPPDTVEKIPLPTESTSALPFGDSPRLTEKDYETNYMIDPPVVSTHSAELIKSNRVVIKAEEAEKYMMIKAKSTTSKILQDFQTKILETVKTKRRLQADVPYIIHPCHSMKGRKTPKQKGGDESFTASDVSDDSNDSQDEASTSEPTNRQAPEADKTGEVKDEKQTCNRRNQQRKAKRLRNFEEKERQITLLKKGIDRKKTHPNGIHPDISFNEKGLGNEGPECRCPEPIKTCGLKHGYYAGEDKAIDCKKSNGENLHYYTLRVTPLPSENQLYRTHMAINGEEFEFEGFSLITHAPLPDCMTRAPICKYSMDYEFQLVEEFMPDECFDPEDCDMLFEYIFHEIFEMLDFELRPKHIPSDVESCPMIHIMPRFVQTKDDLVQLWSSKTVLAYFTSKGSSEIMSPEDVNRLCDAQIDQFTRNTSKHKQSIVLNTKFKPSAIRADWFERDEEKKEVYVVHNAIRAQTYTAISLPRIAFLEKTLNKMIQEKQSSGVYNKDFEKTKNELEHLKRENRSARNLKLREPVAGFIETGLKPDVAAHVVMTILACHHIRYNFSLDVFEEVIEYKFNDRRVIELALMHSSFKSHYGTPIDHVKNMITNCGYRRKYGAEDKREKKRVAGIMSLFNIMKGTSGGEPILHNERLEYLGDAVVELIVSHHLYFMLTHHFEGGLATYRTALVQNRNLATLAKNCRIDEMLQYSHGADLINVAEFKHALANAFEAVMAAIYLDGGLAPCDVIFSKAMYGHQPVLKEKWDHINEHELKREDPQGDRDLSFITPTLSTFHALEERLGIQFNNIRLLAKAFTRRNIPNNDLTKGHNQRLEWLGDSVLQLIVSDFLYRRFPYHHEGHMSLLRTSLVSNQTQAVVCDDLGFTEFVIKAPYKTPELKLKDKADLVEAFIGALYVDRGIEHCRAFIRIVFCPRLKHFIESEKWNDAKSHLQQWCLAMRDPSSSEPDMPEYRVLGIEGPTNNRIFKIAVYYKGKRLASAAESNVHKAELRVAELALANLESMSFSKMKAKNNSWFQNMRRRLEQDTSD
Briefly: co-purification of a recombinant complex; the two proteins were purified together as one complex for cleavage assays; purification as previously described (refs 35, 28, 36); no details given here.

B1: human DGCR8 (protein, UniProt Q8WYQ5 1-773)
chain: METDESPSPLPCGPAGEAVMESRARPFQALPREQSPPPPLQTSSGAEVMDVGSGGDGQSELPAEDPFNFYGASLLSKGSFSKGRLLIDPNCSGHSPRTARHAPAVRKFSPDLKLLKDVKISVSFTESCRSKDRKVLYTGAERDVRAECGLLLSPVSGDVHACPFGGSVGDGVGIGGESADKKDEENELDQEKRVEYAVLDELEDFTDNLELDEEGAGGFTAKAIVQRDRVDEEALNFPYEDDFDNDVDALLEEGLCAPKKRRTEEKYGGDSDHPSDGETSVQPMMTKIKTVLKSRGRPPTEPLPDGWIMTFHNSGVPVYLHRESRVVTWSRPYFLGTGSIRKHDPPLSSIPCLHYKKMKDNEEREQSSDLTPSGDVSPVKPLSRSAELEFPLDEPDSMGADPGPPDEKDPLGAEAAPGALGQVKAKVEVCKDESVDLEEFRSYLEKRFDFEQVTVKKFRTWAERRQFNREMKRKQAESERPILPANQKLITLSVQDAPTKKEFVINPNGKSEVCILHEYMQRVLKVRPVYNFFECENPSEPFGASVTIDGVTYGSGTASSKKLAKNKAARATLEILIPDFVKQTSEEKPKDSEELEYFNHISIEDSRVYELTSKAGLLSPYQILHECLKRNHGMGDTSIKFEVVPGKNQKSEYVMACGKHTVRGWCKNKRVGKQLASQKILQLLHPHVKNWGSLLRMYGRESSKMVKQETSDKSVIELQQYAKKNKPNLHILSKLQEEMKRLAEEREETRKKPKMSIVASAQPGGEPLCTVDV
Turning to B1, the binding result is listed as “binds”.
